This is one part of the list.

By UniProt entry, the sequences of proteins in these tests, tags left out. Where a name states a change or a piece, a line headed by the entry shows the natural chain unless it says otherwise.
UniProt Q13243: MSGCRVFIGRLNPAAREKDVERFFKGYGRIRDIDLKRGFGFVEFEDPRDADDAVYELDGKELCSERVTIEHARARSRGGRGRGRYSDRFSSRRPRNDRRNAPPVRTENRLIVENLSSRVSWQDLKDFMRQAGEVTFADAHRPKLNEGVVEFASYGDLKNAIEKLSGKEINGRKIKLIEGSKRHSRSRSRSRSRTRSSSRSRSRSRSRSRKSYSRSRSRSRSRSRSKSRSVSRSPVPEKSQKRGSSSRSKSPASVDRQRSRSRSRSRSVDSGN
UniProt Q9C004: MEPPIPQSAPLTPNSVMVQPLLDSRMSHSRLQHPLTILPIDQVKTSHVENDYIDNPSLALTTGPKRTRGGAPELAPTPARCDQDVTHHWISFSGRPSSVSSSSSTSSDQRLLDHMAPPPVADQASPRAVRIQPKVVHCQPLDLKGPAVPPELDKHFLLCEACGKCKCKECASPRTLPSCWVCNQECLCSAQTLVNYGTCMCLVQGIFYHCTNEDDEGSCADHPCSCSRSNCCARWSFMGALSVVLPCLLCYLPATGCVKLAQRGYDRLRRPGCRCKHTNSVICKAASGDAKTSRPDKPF
UniProt Q9NYA1, whole entry, looked up: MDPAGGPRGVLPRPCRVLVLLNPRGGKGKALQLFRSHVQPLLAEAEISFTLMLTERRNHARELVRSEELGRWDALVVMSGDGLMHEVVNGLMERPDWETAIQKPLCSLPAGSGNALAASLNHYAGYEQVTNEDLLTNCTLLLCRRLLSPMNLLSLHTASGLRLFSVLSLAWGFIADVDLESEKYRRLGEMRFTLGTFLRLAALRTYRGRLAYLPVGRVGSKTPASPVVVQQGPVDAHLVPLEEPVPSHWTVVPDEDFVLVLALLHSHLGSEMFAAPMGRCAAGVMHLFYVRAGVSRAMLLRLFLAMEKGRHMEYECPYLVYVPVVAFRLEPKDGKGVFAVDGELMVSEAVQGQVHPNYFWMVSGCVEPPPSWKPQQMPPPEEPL
UniProt O95793: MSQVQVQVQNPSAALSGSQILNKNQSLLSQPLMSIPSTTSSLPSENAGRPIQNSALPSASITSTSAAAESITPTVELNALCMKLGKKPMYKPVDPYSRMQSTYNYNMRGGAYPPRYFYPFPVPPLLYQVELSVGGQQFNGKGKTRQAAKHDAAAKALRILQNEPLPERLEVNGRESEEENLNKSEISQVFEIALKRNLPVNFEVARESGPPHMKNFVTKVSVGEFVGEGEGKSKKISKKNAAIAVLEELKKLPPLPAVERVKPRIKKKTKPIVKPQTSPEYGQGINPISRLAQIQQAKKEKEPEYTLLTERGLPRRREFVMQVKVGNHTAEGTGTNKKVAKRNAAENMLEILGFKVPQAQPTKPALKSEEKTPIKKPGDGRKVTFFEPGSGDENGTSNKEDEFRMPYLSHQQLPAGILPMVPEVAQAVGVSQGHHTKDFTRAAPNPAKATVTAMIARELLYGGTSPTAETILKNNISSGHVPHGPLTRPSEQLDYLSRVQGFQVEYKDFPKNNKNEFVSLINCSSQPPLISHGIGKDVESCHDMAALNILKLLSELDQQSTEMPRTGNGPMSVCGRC
UniProt P16150: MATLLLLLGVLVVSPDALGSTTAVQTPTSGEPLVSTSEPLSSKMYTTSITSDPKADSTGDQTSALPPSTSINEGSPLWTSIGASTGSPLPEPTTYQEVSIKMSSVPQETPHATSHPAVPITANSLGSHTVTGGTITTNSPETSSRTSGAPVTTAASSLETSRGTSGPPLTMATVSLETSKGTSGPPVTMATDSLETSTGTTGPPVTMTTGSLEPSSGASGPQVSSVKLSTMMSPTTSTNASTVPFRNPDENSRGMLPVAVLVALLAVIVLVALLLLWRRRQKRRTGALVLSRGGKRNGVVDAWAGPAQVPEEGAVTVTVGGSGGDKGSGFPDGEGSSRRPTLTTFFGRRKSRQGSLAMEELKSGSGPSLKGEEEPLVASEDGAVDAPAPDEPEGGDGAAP
UniProt Q9Y657, whole entry, looked up: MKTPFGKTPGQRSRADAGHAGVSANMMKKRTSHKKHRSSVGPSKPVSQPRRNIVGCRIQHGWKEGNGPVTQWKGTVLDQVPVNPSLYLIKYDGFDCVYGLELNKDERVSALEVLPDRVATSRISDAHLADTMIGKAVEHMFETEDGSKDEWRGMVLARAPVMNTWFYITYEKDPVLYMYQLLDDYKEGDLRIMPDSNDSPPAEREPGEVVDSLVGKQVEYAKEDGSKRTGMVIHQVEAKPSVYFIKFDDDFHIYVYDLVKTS
UniProt P19623: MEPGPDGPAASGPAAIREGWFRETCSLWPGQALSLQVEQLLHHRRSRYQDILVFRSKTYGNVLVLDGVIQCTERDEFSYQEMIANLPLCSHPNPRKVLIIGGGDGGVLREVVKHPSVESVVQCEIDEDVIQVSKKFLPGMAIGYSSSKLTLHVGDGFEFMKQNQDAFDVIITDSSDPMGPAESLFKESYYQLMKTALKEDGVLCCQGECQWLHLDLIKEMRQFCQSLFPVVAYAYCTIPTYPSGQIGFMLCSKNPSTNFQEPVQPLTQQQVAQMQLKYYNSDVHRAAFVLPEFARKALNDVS
UniProt Q14534: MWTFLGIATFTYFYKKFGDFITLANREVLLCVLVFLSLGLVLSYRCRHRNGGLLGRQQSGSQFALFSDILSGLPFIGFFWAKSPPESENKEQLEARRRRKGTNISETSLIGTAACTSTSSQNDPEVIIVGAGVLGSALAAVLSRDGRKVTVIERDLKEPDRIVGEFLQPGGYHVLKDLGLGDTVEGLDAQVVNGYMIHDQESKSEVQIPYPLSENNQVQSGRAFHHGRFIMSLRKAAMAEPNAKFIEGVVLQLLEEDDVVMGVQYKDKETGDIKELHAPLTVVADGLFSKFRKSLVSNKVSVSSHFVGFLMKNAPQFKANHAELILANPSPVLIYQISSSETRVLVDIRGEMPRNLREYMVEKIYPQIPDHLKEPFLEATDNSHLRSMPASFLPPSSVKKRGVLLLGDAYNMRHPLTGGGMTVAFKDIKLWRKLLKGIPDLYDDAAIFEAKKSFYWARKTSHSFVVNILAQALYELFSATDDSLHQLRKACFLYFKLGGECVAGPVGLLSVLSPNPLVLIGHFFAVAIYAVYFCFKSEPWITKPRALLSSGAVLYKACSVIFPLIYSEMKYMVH
UniProt Q8N3U4: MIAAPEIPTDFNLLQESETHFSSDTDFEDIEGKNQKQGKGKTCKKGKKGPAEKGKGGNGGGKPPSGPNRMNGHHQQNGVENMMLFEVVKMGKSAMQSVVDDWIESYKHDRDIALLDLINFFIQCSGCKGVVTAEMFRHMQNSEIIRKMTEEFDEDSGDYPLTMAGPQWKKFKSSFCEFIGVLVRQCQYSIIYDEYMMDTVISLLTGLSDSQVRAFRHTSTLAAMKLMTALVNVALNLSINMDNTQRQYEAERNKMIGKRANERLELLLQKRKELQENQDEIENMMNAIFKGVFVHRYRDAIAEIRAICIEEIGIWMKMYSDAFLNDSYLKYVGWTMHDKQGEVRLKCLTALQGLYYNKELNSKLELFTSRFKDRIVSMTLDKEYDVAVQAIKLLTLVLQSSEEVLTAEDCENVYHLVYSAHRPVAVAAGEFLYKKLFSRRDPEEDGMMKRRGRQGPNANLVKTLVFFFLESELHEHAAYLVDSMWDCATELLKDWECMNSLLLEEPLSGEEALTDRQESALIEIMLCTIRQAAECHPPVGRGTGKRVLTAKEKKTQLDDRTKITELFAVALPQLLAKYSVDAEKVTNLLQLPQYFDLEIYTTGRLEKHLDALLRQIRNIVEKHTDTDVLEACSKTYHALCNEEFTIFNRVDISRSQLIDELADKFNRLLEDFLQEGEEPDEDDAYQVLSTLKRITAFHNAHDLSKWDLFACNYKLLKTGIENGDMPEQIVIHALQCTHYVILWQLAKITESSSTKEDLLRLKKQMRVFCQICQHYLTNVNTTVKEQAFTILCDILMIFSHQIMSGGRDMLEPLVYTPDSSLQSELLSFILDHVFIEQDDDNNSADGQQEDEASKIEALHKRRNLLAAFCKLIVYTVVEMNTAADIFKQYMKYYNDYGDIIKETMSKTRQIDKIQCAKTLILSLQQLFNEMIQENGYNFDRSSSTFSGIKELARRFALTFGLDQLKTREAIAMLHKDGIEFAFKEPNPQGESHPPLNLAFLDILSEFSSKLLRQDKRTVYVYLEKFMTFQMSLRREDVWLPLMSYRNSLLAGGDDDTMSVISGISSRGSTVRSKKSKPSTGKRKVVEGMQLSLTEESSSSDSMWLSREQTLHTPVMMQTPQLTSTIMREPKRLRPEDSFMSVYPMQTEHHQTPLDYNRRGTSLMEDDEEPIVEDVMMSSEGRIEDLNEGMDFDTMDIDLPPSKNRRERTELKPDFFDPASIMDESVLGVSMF
UniProt P31948, whole entry, looked up: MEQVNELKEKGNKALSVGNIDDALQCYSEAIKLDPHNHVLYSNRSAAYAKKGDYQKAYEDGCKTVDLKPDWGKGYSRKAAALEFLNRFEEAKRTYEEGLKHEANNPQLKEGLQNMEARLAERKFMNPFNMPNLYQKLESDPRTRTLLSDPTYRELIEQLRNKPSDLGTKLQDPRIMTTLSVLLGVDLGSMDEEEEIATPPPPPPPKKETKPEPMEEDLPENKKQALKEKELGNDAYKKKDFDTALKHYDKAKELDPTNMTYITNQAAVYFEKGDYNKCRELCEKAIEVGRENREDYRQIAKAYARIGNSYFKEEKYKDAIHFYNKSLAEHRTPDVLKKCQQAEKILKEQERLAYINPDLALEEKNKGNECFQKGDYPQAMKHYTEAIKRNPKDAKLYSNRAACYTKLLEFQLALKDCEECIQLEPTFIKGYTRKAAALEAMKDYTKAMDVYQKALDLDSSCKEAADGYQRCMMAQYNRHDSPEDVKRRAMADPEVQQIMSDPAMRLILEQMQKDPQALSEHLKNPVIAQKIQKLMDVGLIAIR
UniProt Q04837: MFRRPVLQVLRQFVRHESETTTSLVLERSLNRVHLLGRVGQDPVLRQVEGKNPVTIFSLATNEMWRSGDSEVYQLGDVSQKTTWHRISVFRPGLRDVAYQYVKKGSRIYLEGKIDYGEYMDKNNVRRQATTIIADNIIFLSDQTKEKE
UniProt P37108: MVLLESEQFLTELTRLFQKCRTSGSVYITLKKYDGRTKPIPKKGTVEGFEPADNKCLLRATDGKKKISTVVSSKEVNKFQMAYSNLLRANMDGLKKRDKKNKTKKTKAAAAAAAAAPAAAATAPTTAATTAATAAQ
UniProt Q9NRC1: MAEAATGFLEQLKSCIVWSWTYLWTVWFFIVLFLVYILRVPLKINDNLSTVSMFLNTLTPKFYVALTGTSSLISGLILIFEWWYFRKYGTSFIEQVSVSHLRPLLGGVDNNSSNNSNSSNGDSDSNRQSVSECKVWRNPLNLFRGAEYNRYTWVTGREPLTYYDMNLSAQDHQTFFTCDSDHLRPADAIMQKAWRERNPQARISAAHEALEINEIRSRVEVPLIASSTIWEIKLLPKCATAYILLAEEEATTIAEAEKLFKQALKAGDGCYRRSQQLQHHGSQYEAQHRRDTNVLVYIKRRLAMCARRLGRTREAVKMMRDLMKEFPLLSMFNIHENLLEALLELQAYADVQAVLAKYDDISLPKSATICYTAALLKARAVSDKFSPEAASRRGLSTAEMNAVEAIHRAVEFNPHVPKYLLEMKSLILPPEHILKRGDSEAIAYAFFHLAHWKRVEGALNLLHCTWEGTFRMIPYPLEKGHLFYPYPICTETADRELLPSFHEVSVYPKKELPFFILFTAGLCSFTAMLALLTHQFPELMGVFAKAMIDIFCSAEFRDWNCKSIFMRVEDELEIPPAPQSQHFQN
UniProt O95630, whole entry, looked up: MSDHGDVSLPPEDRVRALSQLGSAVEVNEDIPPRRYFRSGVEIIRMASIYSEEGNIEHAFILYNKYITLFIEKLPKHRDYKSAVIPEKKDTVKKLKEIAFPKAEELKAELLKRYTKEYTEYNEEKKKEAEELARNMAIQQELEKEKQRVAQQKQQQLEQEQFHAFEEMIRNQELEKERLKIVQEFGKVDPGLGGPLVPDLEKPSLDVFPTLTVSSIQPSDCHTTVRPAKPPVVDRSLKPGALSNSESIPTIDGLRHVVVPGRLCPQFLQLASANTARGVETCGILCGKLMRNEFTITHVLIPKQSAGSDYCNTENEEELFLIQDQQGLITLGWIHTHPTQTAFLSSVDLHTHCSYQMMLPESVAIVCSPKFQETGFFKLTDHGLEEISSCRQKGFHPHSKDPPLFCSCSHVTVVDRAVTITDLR
UniProt Q9HBM1: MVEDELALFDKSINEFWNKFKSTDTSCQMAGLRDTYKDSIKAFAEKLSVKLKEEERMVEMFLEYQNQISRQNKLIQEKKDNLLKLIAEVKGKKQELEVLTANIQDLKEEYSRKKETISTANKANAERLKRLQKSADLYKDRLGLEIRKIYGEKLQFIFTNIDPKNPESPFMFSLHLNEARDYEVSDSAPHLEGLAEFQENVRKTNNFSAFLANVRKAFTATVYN
UniProt Q13242, whole entry, looked up: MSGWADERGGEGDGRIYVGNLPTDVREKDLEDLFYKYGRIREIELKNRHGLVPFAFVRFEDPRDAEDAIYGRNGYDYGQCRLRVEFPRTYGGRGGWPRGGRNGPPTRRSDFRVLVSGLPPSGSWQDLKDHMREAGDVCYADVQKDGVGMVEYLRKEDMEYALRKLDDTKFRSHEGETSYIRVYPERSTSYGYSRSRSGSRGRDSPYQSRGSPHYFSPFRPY

Compound in the first test: CC(C)N(C[C@H]1O[C@@H](n2cnc3c(N)ncnc32)[C@H](O)[C@@H]1O)[C@H]1C[C@@H](CCc2nc3cc(C(C)(C)C)ccc3[nH]2)C1 [pinometostat]
The test is described as follows: log2 fold change, soluble protein after heating vs DMSO (PISA); higher = thermal stabilisation; K562 cells, 10 uM, 30 min; active = over 0.2 and 3.5 SD of the protein, either way, in both replicates (recomputed). In a few lines:
(§1)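 Soluble protein was defined as the supernatant after 21,000xg for 90 min. It came from K562 cells at 2×10^6 cells/mL given 10 μM compound for 30 min, heated in aliquots for 3 min across 48°C-58°C, pooled, and extracted in PBS with 0.5% NP-40 at 4°C, and was quantified by TMTpro 16plex LC-MS/MS with equalised channel sums. Thermal stability against control samples, from duplicates, is reported as log2 fold change.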
For SRSF5 (UniProt Q13243), the log2 fold change was inactive: 0.289.

Consider SPRY4 (UniProt Q9C004), for which the log2 fold change is inactive: -0.015.

With SRRT (UniProt Q9BXP5), the log2 fold change was inactive: -0.011.

Regarding SPCS3 (UniProt P61009), the log2 fold change is inactive: 0.001.

On to SPHK1 isoform 2 (UniProt Q9NYA1), for which the log2 fold change was inactive: -0.046.

SPRYD4 (UniProt Q8WW59): the log2 fold change is inactive: -0.042.

As to ST6GALNAC1 (UniProt Q9NSC7), the log2 fold change was inactive: 0.077.

As for SRR (UniProt Q9GZT4), the log2 fold change was inactive: 0.011.

On to SPTAN1 isoform 2 (UniProt Q13813), for which the log2 fold change was inactive: -0.018.

SSR1 (UniProt P43307): the log2 fold change is inactive: -0.016.

On to SPRYD7 (UniProt Q5W111), for which the log2 fold change was inactive: 0.002.

For the target SPCS1, A0A5F9YFS9, the log2 fold change is inactive: 0.008.

In the case of STAU1 (UniProt O95793), the log2 fold change was inactive: 0.428.

Turning to SPN (UniProt P16150), the log2 fold change was inactive: 0.032.

Turning to SPIN1 (UniProt Q9Y657), the log2 fold change was inactive: 0.059.

For SRM (UniProt P19623), the log2 fold change was inactive: -0.019.

SQLE (UniProt Q14534): the log2 fold change was inactive: 0.046.

As for STK11 (UniProt Q15831), the log2 fold change was inactive: -0.002.

For the target SPTA1 (UniProt P02549), the log2 fold change is inactive: 0.29.

In the case of SRA1 (UniProt Q9HD15), the log2 fold change was inactive: -0.031.

In the case of STAM (UniProt Q92783), the log2 fold change is inactive: -0.054.

For STAG2 (UniProt Q8N3U4), the log2 fold change is inactive: 0.

Consider STIP1 isoform 2 (UniProt P31948), for which the log2 fold change is inactive: -0.071.

STAT1 (UniProt P42224): the log2 fold change was inactive: 0.397.

For the target SPARC (UniProt P09486), the log2 fold change is inactive: -0.092.

For the target SRPK1 (UniProt Q96SB4), the log2 fold change was inactive: 0.372.

In the case of SSBP1 (UniProt Q04837), the log2 fold change is inactive: 0.041.

As to SRP14 (UniProt P37108), the log2 fold change was inactive: 0.348.

For the target ST7 (UniProt Q9NRC1), the log2 fold change was inactive: 0.027.

Regarding STAMBP (UniProt O95630), the log2 fold change is inactive: 0.11.

Take SPECC1L (UniProt Q69YQ0): the log2 fold change was inactive: -0.028.

As for SPTB isoform 2 (UniProt P11277), the log2 fold change was inactive: 0.309.

For the target SPTBN2 (UniProt O15020), the log2 fold change was inactive: 0.043.

Consider SRP54 (UniProt P61011), for which the log2 fold change is inactive: 0.012.

In the case of SPC25 (UniProt Q9HBM1), the log2 fold change is inactive: -0.006.

For the target SPATA5L1 (UniProt Q9BVQ7), the log2 fold change is inactive: -0.015.

On to STAG1 (UniProt Q8WVM7), for which the log2 fold change was inactive: -0.021.

In the case of SRSF9 (UniProt Q13242), the log2 fold change is inactive: 0.29.

Compound in a further test: CC1=C(C(CC(=O)N1)C2=CC=C(C=C2)C(F)(F)F)C(=O)NC3=C(C=C4C(=C3)C=NN4)F
The description is as above. In a few lines: as §1
On to SRSF5 (UniProt Q13243), for which the log2 fold change was inactive: 0.032.

With SPRY4 (UniProt Q9C004), the log2 fold change was inactive: 0.043.

For SRRT (UniProt Q9BXP5), the log2 fold change was inactive: 0.

SPCS3 (UniProt P61009): the log2 fold change is inactive: 0.066.

Regarding SPHK1 isoform 2 (UniProt Q9NYA1), the log2 fold change is inactive: 0.004.

With SPRYD4 (UniProt Q8WW59), the log2 fold change is inactive: -0.059.

ST6GALNAC1 (UniProt Q9NSC7): the log2 fold change was inactive: 0.022.

On to SRR (UniProt Q9GZT4), for which the log2 fold change is inactive: 0.004.

As for SPTAN1 isoform 2 (UniProt Q13813), the log2 fold change was inactive: -0.009.

With SSR1 (UniProt P43307), the log2 fold change was inactive: 0.034.

For SPRYD7 (UniProt Q5W111), the log2 fold change is inactive: 0.04.

Turning to SPCS1, A0A5F9YFS9, the log2 fold change is inactive: -0.007.

For STAU1 (UniProt O95793), the log2 fold change was inactive: 0.067.

With SPN (UniProt P16150), the log2 fold change is inactive: 0.005.

Take SPIN1 (UniProt Q9Y657): the log2 fold change was inactive: -0.024.

As to SRM (UniProt P19623), the log2 fold change is inactive: -0.037.

Take SQLE (UniProt Q14534): the log2 fold change is inactive: -0.068.

Regarding STK11 (UniProt Q15831), the log2 fold change was inactive: 0.021.

Turning to SPTA1 (UniProt P02549), the log2 fold change was inactive: -0.038.

Consider SRA1 (UniProt Q9HD15), for which the log2 fold change is inactive: 0.005.

As for STAM (UniProt Q92783), the log2 fold change is inactive: -0.017.

STAG2 (UniProt Q8N3U4): the log2 fold change was inactive: -0.022.

For STIP1 isoform 2 (UniProt P31948), the log2 fold change is inactive: -0.023.

For the target STAT1 (UniProt P42224), the log2 fold change was inactive: 0.149.

For SPARC (UniProt P09486), the log2 fold change is inactive: 0.028.

In the case of SRPK1 (UniProt Q96SB4), the log2 fold change was inactive: 0.036.

For SSBP1 (UniProt Q04837), the log2 fold change was inactive: 0.008.

Take SRP14 (UniProt P37108): the log2 fold change is inactive: 0.064.

For ST7 (UniProt Q9NRC1), the log2 fold change is inactive: 0.004.

Take STAMBP (UniProt O95630): the log2 fold change is inactive: -0.074.

As to SPECC1L (UniProt Q69YQ0), the log2 fold change was inactive: -0.012.

SPTB isoform 2 (UniProt P11277): the log2 fold change is inactive: 0.201.

With SPTBN2 (UniProt O15020), the log2 fold change is inactive: -0.069.

Take SRP54 (UniProt P61011): the log2 fold change was inactive: -0.013.

With SPC25 (UniProt Q9HBM1), the log2 fold change was inactive: -0.04.

Regarding SPATA5L1 (UniProt Q9BVQ7), the log2 fold change is inactive: -0.006.

As for STAG1 (UniProt Q8WVM7), the log2 fold change was inactive: -0.021.

The values are drawn from the supplement of paper PMC10849652.
